Patent US20050261331A1, “Substituted pyrrolopyridines” (priority 2002, published 2005)
pIC50: −log10 of the molar value. Where a name gives a salt, the structure may show the parent alone. Some results were stated once for a whole list of compounds, not compound by compound.

Target: T1, recombinant human Itk kinase domain fused with GST (Homo sapiens, UniProt Q08881)
T1 construct: recombinant human Itk kinase domain fused with GST; made in house; host or cells: High Five insect cells
T1 sequence (Q08881 363-615 limits assumed): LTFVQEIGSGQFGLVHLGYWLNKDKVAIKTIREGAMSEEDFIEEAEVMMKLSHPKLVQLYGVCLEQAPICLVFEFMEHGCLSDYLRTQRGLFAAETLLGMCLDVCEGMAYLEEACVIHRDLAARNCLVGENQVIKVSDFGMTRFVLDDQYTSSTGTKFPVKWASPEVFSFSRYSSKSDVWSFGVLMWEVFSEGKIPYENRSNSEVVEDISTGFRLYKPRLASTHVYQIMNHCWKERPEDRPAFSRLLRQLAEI
Test: Itk LANCE TRF Assay
Format: biochemical
Details: 160 ng/well Itk, 2 μM peptide substrate, 50 μM ATP, 50 minutes RT; statement for all Examples; read-out: IC50 values for inhibition of Itk activity
Method: The Itk kinase assay utilized recombinant human Itk kinase domain fused with GST (Glutathione S-Transferase). The protein was expressed in High five insect cells, purified in one step on an affinity chromatography glutathione column and stored in 50 mM Tris/HCl (pH 7.6), 150 mM NaCl, 5% (w/v) mannitol, 1 mM DTT, 30% glycerol at −70° C. The kinase substrate used in the assay was a biotinylated peptide derived from the Src-optimal substrate (Nair et al, J. Med. Chem., 38: 4276, 1995; biotin-AEEEIYGEFEAKKKK).
The assay additions were as follows: Test compounds (or controls; 1 μL in 100% DMSO) were added to black 96-well flat-bottomed plates (Greiner 655076) followed by 20 μL Itk in assay buffer and the reaction was started by adding 20 μL ATP and peptide substrate in assay buffer. The assay buffer constitution during phosphorylation was: 50 mM HEPES (pH 6.8), 10 mM MgCl2, 0.015% Brij 35, 1 mM DTT, 10% glycerol, 160 ng/well Itk, 2 μM peptide substrate and 50 μM ATP. The assay was stopped after 50 minutes (RT) by adding 150 μL ice-cold Stop solution (50 mM Tris/HCl, pH 7.5, 10 mM EDTA, 0.9% NaCl and 0.1% BSA) together with LANCE reagents (2 nM PT66-Eu^3+, Wallac AD0069 and 5 μg/ml Streptavidin-APC, Wallac AD0059. Both concentrations were final in stopped assay solution). The plates were measured on a Wallac 1420 Victor 2 instrument with TRF settings after 1 h incubation, and the ratio (665 signal/615 signal)*10000 was used to calculate the inhibition values. IC50 values were determined using XLfit.

pIC50, > 4.60:
N#Cc1cnc2[nH]c(-c3ccccc3)c(-c3ccc(O)cc3)c2c1 [Example 42, 3-(4-Hydroxyphenyl)-2-phenyl-1H-pyrrolo[2,3-b]pyridine-5-carbonitrile]
N#Cc1cnc2[nH]c(-c3ccccc3)c(-c3ccc(N4CCOCC4)cc3)c2c1 [Example 44, 3-(4-Morpholin-4-ylphenyl)-2-phenyl-1H-pyrrolo[2,3-b]pyridine-5-carbonitrile]
COc1ccc(-c2[nH]c3ncc(C#N)cc3c2-c2ccc(O)cc2)cc1 [Example 45, 3-(4-Hydroxyphenyl)-2-(4-methoxyphenyl)-1H-pyrrolo[2,3-b]pyridine-5-carbonitrile]
Brc1cnc2[nH]c(-c3ccccc3)c(-n3cccc3)c2c1 [Example 46, 5-Bromo-2-phenyl-3-pyrrol-1-yl-1H-pyrrolo[2,3-b]pyridine]
COc1ccc(-c2[nH]c3ncc(C#N)cc3c2-n2cccc2)cc1 [Example 47, 5-Cyano-2-(4-methoxy-phenyl)-3-pyrrol-1-yl-1H-pyrrolo[2,3-b]pyridine]
Cc1ccc(C)n1-c1c(-c2ccccc2)[nH]c2ncc(Br)cc12 [Example 48, 5-Bromo-3-(2,5-dimethyl-pyrrol-1-yl)-2-phenyl-1H-pyrrolo[2,3-b]pyridine]
Cc1cnc2[nH]c(-c3ccc(OCCCN(C)C)cc3)c(-c3cncnc3)c2c1 [Example 49, {3-[4-(5-Methyl-3-pyrimidin-5-yl-1H-pyrrolo[2,3-b]pyridin-2-yl)phenoxy]propyl}dimethylamine]
CN(C)CCCOc1ccc(-c2[nH]c3ncc(F)cc3c2-c2cncnc2)cc1 [Example 50, {3-[4-(5-Fluoro-3-pyrimidin-5-yl-1H-pyrrolo[2,3-b]pyridin-2-yl)phenoxy]propyl}dimethylamine]
Cc1c(C#N)cnc2[nH]c(-c3ccc(OCCCN(C)C)cc3)c(-c3cccnc3)c12 [Example 51, 2-{4-[3-(dimethylamino)propoxy]phenyl}-4-methyl-3-pyridin-3-yl-1H-pyrrolo [2,3-b]pyridine-5-carbonitrile]
O=C(c1cc(-c2[nH]c3ncc(Cl)cc3c2-c2cccnc2)c[nH]1)N1CCNCC1 [Example 52, 5-Chloro-2-[5-(piperazin-1-ylcarbonyl)-1H-pyrrol-3-yl]-3-pyridin-3-yl-1H-pyrrolo[2,3-b]pyridine bis(trifluoroacetate)]
O=C(c1cc(-c2[nH]c3ncc(Cl)cc3c2-c2cncnc2)c[nH]1)N1CCNCC1 [Example 53, 5-Chloro-2-[5-(piperazin-1-ylcarbonyl)-1H-pyrrol-3-yl]-3-pyrimidin-5-yl-1H-pyrrolo[2,3-b]pyridine bis(trifluoroacetate)]
CN(C)CCCOc1ccc(-c2[nH]c3ncc(Cl)c(Cl)c3c2-c2cncnc2)cc1 [Example 54, {3-[4-(4,5-Dichloro-3-pyrimidin-5-yl-1H-pyrrolo[2,3-b]pyridin-2-yl)phenoxy]propyl}dimethylamine]
Cc1c(Br)cnc2[nH]c(-c3ccc(OCCCN(C)C)cc3)c(-c3cccnc3)c12 [Example 55, {3-[4-(5-Bromo-4-methyl-3-pyridin-3-yl-1H-pyrrolo[2,3-b]pyridin-2-yl)phenoxy]propyl}dimethylamine]
Clc1cnc2[nH]c(-c3ccc[nH]3)c(-c3cccnc3)c2c1 [Example 56, 5-Chloro-3-pyridin-3-yl-2-(1H-pyrrol-2-yl)-1H-pyrrolo[2,3-b]pyridine]
Clc1cnc2[nH]c(-c3cc[nH]c3)c(-c3cccnc3)c2c1 [Example 57, 5-Chloro-3-pyridin-3-yl-2-(1H-pyrrol-3-yl)-1H-pyrrolo[2,3-b]pyridine trifluoroacetate]
COc1c(Cl)cnc2[nH]c(-c3cc[nH]c3)c(-c3cccnc3)c12 [Example 58, 5-Chloro-4-methoxy-3-pyridin-3-yl-2-(1H-pyrrol-3-yl)-1H-pyrrolo[2,3-b]pyridine trifluoroacetate]
Clc1cnc2[nH]c(-c3ccc(Cl)nc3)c(-c3cncnc3)c2c1 [Example 59, 5-Chloro-2-(6-chloropyridin-3-yl)-3-pyrimidin-5-yl-1H-pyrrolo[2,3-b]pyridine]
CNCCOc1ccc(-c2[nH]c3ncc(Cl)cc3c2-c2cncnc2)cn1 [Example 60, (2-{[5-(5-Chloro-3-pyrimidin-5-yl-1H-pyrrolo[2,3-b]pyridin-2-yl)pyridin-2-yl]oxy}ethyl)methylamine tris(trifluoroacetate)]
CN(C)CCCN(C)c1ccc(-c2[nH]c3ncc(Cl)cc3c2-c2cncnc2)cn1 [Example 61, N-[5-(5-Chloro-3-pyrimidin-5-yl-1H-pyrrolo[2,3-b]pyridin-2-yl]-N,N′,N′-trimethylpropane-1,3-diaminetrihydrochloride]
CN(C)CCCNc1ccc(-c2[nH]c3ncc(Cl)cc3c2-c2cncnc2)cn1 [Example 62, N′-[5-(5-chloro-3-pyrimidin-5-yl-1H-pyrrolo[2,3-b]pyridin-2-yl)pyridin-2-yl]-N,N-dimethylpropane-1,3-diamine tris(trifluoroacetate)]
CN(C)CCCOc1ccc(-c2[nH]c3ncc(Cl)cc3c2-c2cncnc2)cc1 [Example 63, N-{3-[4-(5-chloro-3-pyrimidin-5-yl-1H-pyrrolo[2,3-b]pyridin-2-yl)phenoxy]propyl}-N,N-dimethylamine]
COc1c(Cl)cnc2[nH]c(-c3ccc(OCCCN(C)C)cc3)c(-c3cccnc3)c12 [Example 64, {3-[4-(5-Chloro-4-methoxy-3-pyridin-3-yl-1H-pyrrolo[2,3-b]pyridin-2-yl)phenoxy]propyl}dimethylamine]
NC(=O)NCCOc1ccc(-c2[nH]c3ncc(Cl)cc3c2-c2cncnc2)cn1 [Example 65, N-(2-{[5-(5-chloro-3-pyrimidin-5-yl-1H-pyrrolo[2,3-b]pyridin-2-yl)pyridin-2-yl]oxy}ethyl)urea bis(trifluoroacetate)]
OCCOc1ccc(-c2[nH]c3ncc(Cl)cc3c2-c2cncnc2)cn1 [Example 66, 2-{[5-(5-Chloro-3-pyrimidin-5-yl-1H-pyrrolo[2,3-b]pyridin-2-yl)pyridin-2-yl]oxy}ethanol bis(trifluoroacetate)]
CC(=O)N1CCN(c2ccc(-c3[nH]c4ncc(Cl)cc4c3-c3cncnc3)cn2)CC1 [Example 67, 2-[6-(4-Acetylpiperazin-1-yl)pyridin-3-yl]-5-chloro-3-pyrimidin-5-yl-1H-pyrrolo[2,3-b]pyridine bis(trifluoroacetate)]
Clc1cnc2[nH]c(-c3ccc(N4CCOCC4)nc3)c(-c3cncnc3)c2c1 [Example 69]
CN1CCN(CC(O)COc2ccc(-c3[nH]c4ncc(Cl)cc4c3-c3cncnc3)cc2)CC1 (stereo not shown) [Example 70, 1-[4-(5-Chloro-3-pyrimidin-5-yl-1H-pyrrolo[2,3-b]pyridin-2-yl)phenoxy]-3-(4-methylpiperazin-1-yl)propan-2-ol bis(trifluoroacetate)]
CN(C)CC(O)COc1ccc(-c2[nH]c3ncc(Cl)cc3c2-c2cncnc2)cc1 (stereo not shown) [Example 71, 1-[4-(5-Chloro-3-pyrimidin-5-yl-1H-pyrrolo[2,3-b]pyridin-2-yl)phenoxy]-3-(dimethylamino)propan-2-ol bis(trifluoroacetate)]
OC(COc1ccc(-c2[nH]c3ncc(Cl)cc3c2-c2cncnc2)cc1)CN1CCOCC1 (stereo not shown) [Example 72, 1-[4-(5-Chloro-3-pyrimidin-5-yl-1H-pyrrolo[2,3-b]pyridin-2-yl)phenoxy]-3-morpholin-4-ylpropan-2-ol bis(trifluoroacetate)]
OC1CCN(CC(O)COc2ccc(-c3[nH]c4ncc(Cl)cc4c3-c3cncnc3)cc2)C1 (stereo not shown) [Example 73, 1-{3-[4-(5-Chloro-3-pyrimidin-5-yl-1H-pyrrolo[2,3-b]pyridin-2-yl)phenoxy]-2-hydroxypropyl}pyrrolidin-3-ol bis(trifluoroacetate)]
OC(COc1ccc(-c2[nH]c3ncc(Cl)cc3c2-c2cncnc2)cc1)CN1CCC(N2CCCCC2)CC1 (stereo not shown) [Example 74, 1-(1,4′-Bipiperidin-1′-yl)-3-[4-(5-chloro-3-pyrimidin-5-yl-1H-pyrrolo[2,3-b]pyridin-2-yl)phenoxy]propan-2-ol bis(trifluoroacetate)]
